No constants are given. Whether binding was seen depends on the method and setting. In cells and extracts the contact can be indirect. Some binding calls cover weakened binding; strength is not graded here.
Molecular target: heterogeneous nuclear ribonucleoprotein C (human (endogenous in KGN)) (UniProt P07910)
Experiment: co-IP; KGN cells lysed in RIPA buffer; IP antibody on magnetic beads, incubated with the lysate overnight at 4 °C, Western blot; cells with DANCR knockdown (shDANCR), DANCR overexpression or controls

The chains behind the UniProt entries cited, without tags or fusion partners.
UniProt P07910: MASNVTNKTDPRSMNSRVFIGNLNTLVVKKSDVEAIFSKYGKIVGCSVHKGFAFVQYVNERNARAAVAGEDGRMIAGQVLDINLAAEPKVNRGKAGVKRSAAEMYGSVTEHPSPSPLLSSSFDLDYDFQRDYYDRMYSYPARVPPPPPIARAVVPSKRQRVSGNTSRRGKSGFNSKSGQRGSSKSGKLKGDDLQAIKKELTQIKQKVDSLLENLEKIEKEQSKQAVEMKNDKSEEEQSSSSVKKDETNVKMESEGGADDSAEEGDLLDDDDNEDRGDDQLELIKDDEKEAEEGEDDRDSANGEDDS

- binding: binds
Substance: p53 (from UniProt P04637 1-393)
